Reference: US9661850B2, “Methods of soil pest control” (Syngenta Participations AG, priority 2012, dated 2017)
Some entries share one result that the patent states for a list of compounds.

System: Diabrotica balteata (Corn Rootworm)
Assay: Diabrotica balteata artificial diet 24-well microtiter plate test
Assay type: in vivo
Conditions: 200 ppm, L2 larvae, 5 days

Row | Compound | mortality [%]
1 | Cc1cc(C2=NOC(c3cc(Cl)c(Cl)c(Cl)c3)(C(F)(F)F)C2)ccc1C(=O)NC1CON(CC(F)(F)F)C1=O (mixture of isomers) [Compound A1] | 100
2 | Cc1cc(C2=NOC(c3cc(Cl)cc(Cl)c3)(C(F)(F)F)C2)ccc1C(=O)NC1CON(C)C1=O (mixture of isomers) [Compound A2] | 100
3 | CCN1OCC(NC(=O)c2ccc(C3=NOC(c4cc(Cl)c(F)c(Cl)c4)(C(F)(F)F)C3)cc2C)C1=O (mixture of isomers) [Compound A5] | 100
4 | Cc1cc(C2=NOC(c3cc(Cl)cc(Cl)c3)(C(F)(F)F)C2)ccc1C(=O)NC1CON(CC(F)F)C1=O (mixture of isomers) [Compound A6] | 100
5 | Cc1cc(C2=NOC(c3cc(Cl)cc(Cl)c3)(C(F)(F)F)C2)ccc1C(=O)NC1CON(CC(F)(F)F)C1=O (mixture of isomers) [Compound A8] | 100
6 | CCN1OCC(NC(=O)c2ccc(C3=NOC(c4cc(Cl)cc(Cl)c4)(C(F)(F)F)C3)cc2C)C1=O (mixture of isomers) [Compound A9] | 100
7 | Cc1cc(C2=NOC(c3cc(Cl)cc(Br)c3)(C(F)(F)F)C2)ccc1C(=O)NC1CON(CC(F)(F)F)C1=O (mixture of isomers) [Compound A10] | 100
8 | CCN1OCC(NC(=O)c2ccc(C3=NOC(c4cc(C(F)(F)F)c(Cl)c(C(F)(F)F)c4)(C(F)(F)F)C3)cc2C)C1=O (mixture of isomers) [Compound A15] | 100
9 | CCN1OCC(NC(=O)c2ccc(C3=NOC(c4cc(F)cc(Cl)c4)(C(F)(F)F)C3)cc2C)C1=O (mixture of isomers) [Compound A22] | 100
10 | CCN1OCC(NC(=O)c2ccc(C3=NOC(c4cc(Cl)c(Cl)c(Cl)c4)(C(F)(F)F)C3)cc2C)C1=O (mixture of isomers) [Compound A23] | 100
11 | Cc1cc(C2=NOC(c3cc(Cl)cc(Cl)c3)(C(F)(F)F)C2)ncc1C(=O)NC1CON(CC(F)(F)F)C1=O (racemic) [Compound A63] | 100
12 | CCN1OCC(NC(=O)c2cnc(C3=NOC(c4cc(Cl)cc(Cl)c4)(C(F)(F)F)C3)cc2C)C1=O (racemic) [Compound A64] | 100
13 | Cc1cc(C2=COC(c3cc(Cl)cc(Cl)c3)(C(F)(F)F)C2)ccc1C(=O)NC1CON(CC(F)(F)F)C1=O (racemic) [Compound B2] | 100
14 | CCN1OCC(NC(=O)c2ccc(C3=NCC(c4cc(Cl)c(Cl)c(Cl)c4)(C(F)(F)F)C3)cc2C)C1=O (racemic) [Compound C3] | 100
15 | Cc1cc(C2=NCC(c3cc(Cl)c(Cl)c(Cl)c3)(C(F)(F)F)C2)ccc1C(=O)NC1CON(CC(F)(F)F)C1=O (racemic) [Compound C6] | 100
16 | Cc1cc(N2CCC(c3cc(Cl)cc(Cl)c3)(C(F)(F)F)C2)ccc1C(=O)NC1CON(CC(F)(F)F)C1=O (racemic) [Compound D1] | 100
17 | CCN1OCC(NC(=O)c2ccc(N3CCC(c4cc(Cl)cc(Cl)c4)(C(F)(F)F)C3)cc2C)C1=O (racemic) [Compound D2] | 100
18 | Cc1cc(N2CCC(c3cc(Cl)cc(Cl)c3)(C(F)(F)F)C2)ncc1C(=O)NC1CON(CC(F)(F)F)C1=O (racemic) [Compound D3] | 100
19 | Cc1cc(C2=NO[C@@](c3cc(Cl)cc(Cl)c3)(C(F)(F)F)C2)ccc1C(=O)N[C@H]1CON(CC(F)(F)F)C1=O [Compound A3] | 100
20 | CCN1OC[C@H](NC(=O)c2ccc(C3=NO[C@@](c4cc(Cl)cc(Cl)c4)(C(F)(F)F)C3)cc2C)C1=O [Compound A4] | 100

Row | Compound | mortality [%]
21 | CCN1OC[C@@H](NC(=O)c2ccc(C3=NO[C@@](c4cc(Cl)cc(Br)c4)(C(F)(F)F)C3)cc2C)C1=O [Compound A11] | 100
22 | CCN1OC[C@@H](NC(=O)c2ccc(C3=NO[C@@](c4cc(Cl)cc(C(F)(F)F)c4)(C(F)(F)F)C3)cc2C)C1=O [Compound A12] | 100
23 | Cc1cc(C2=NO[C@@](c3cc(Cl)cc(Cl)c3)(C(F)(F)F)C2)ccc1C(=O)N[C@@H]1CON(CC(F)F)C1=O [Compound A14] | 100
24 | Cc1cc(C2=NO[C@@](c3cc(Cl)cc(Cl)c3)(C(F)(F)F)C2)ccc1C(=O)N[C@@H]1CON(CC(F)(F)F)C1=O [Compound A16] | 100
25 | CCN1OC[C@@H](NC(=O)c2ccc(C3=NO[C@@](c4cc(Cl)cc(Cl)c4)(C(F)(F)F)C3)cc2C)C1=O [Compound A17] | 100
26 | CCN1OC[C@@H](NC(=O)c2ccc(C3=NO[C@@](c4cc(Cl)c(F)c(Cl)c4)(C(F)(F)F)C3)cc2C)C1=O [Compound A18] | 100
27 | CCN1OC[C@@H](NC(=O)c2ccc(C3=NO[C@@](c4cc(Cl)c(Cl)c(Cl)c4)(C(F)(F)F)C3)cc2C)C1=O [Compound A19] | 100
28 | Cc1cc(C2=NO[C@@](c3cc(Cl)c(F)c(Cl)c3)(C(F)(F)F)C2)ccc1C(=O)N[C@@H]1CON(CC(F)(F)F)C1=O [Compound A20] | 100
29 | Cc1cc(C2=NO[C@@](c3cc(Cl)c(Cl)c(Cl)c3)(C(F)(F)F)C2)ccc1C(=O)N[C@@H]1CON(CC(F)(F)F)C1=O [Compound A21] | 100
30 | CCN1OC[C@@H](NC(=O)c2ccc(C3=NO[C@@](c4cc(Cl)c(Cl)c(Cl)c4)(C(F)(F)F)C3)cc2Cl)C1=O [Compound A24] | 100
31 | CCN1OC[C@@H](NC(=O)c2ccc(C3=NO[C@@](c4cc(Cl)cc(Cl)c4)(C(F)(F)F)C3)cc2Br)C1=O [Compound A25] | 100
32 | CCN1OC[C@@H](NC(=O)c2ccc(C3=NO[C@@](c4cc(Cl)c(Cl)c(Cl)c4)(C(F)(F)F)C3)cc2Br)C1=O [Compound A26] | 100
33 | CCN1OC[C@@H](NC(=O)c2ccc(C3=NO[C@@](c4cc(Cl)cc(Cl)c4)(C(F)(F)F)C3)cc2C(F)(F)F)C1=O [Compound A27] | 100
34 | CCN1OC[C@@H](NC(=O)c2ccc(C3=NO[C@@](c4cc(Cl)c(Cl)c(Cl)c4)(C(F)(F)F)C3)cc2C(F)(F)F)C1=O [Compound A28] | 100
35 | CCN1OC[C@@H](NC(=O)c2ccc(C3=NO[C@@](c4cccc(C(F)(F)F)c4)(C(F)(F)F)C3)cc2C)C1=O [Compound A29] | 100
36 | CCN1OC[C@@H](NC(=O)c2ccc(C3=NO[C@@](c4cc(Cl)cc(C(F)(F)F)c4)(C(F)(F)F)C3)c3ccccc23)C1=O [Compound A30] | 100
37 | CCN1OC[C@@H](NC(=O)c2ccc(C3=NO[C@@](c4cc(Cl)c(F)c(Cl)c4)(C(F)(F)F)C3)cc2Cl)C1=O [Compound A31] | 100
38 | Cc1cc(C2=NCC(c3cc(Cl)cc(Cl)c3)(C(F)(F)F)C2)ccc1C(=O)NC1CON(CC(F)(F)F)C1=O (stereo not drawn) [Compound C1] | 100
39 | CCN1OCC(NC(=O)c2ccc(C3=NCC(c4cc(Cl)cc(Cl)c4)(C(F)(F)F)C3)cc2C)C1=O (stereo not drawn) [Compound C2] | 100
